Source: patent publication US20090017003A1, “THIOSULFONATE ANTI-INFLAMMATORY AGENTS” (SULFIDRIS S.R.L., priority 2006, published 2009)
Some of these results come from one statement about several compounds together.

Tested on: Prostaglandin E2
Test: Prostaglandin E2 in liver homogenate of treated rats (enzyme immunoassay)
Type: in vivo
Details: male rats, once daily by gavage for three days; diclofenac 10 mg/kg, compound of example 5 14 mg/kg

Structure (SMILES)	reduction of prostanoid formation in liver homogenates vs vehicle-treated animals
O=C(O)Cc1ccccc1Nc1c(Cl)cccc1Cl [Diclofenac, diclofenac, reference compound]	≥ 90%
CS(=O)(=O)SCCOC(=O)Cc1cccc(Nc2c(Cl)cccc2Cl)c1 [Example 5, [3-(2,6-dichloro-phenylamino)-phenyl]-acetic acid 2-methanesulfonylsulfanyl-ethyl ester]	≥ 90%
